In PubChem BioAssay AID248 (DTP/NCI, 2004):
The list does not hold the whole screen: it gathers tests that were run many times, whatever their T/C, doses with no T/C, and many T/C values between a quarter and a half above the control. Other doses and runs of a compound stand elsewhere. T/C: endpoint of the treated group in % of that of the vehicle group. Some entries give survivors of the animals treated and no T/C: the source holds a T/C of zero for them, seemingly a mark for toxic or unscored doses. Some survivor counts are full or nearly so, which does not show that the dose was tolerated: survival well below the control is almost never listed, so the zero probably covers shortened survival too. Counts of survivors are from the toxicity check (mostly the fifth day) where no day follows; animals may have died later. Schedule codes are those of the source, taken here to give the interval after Q, in days (D) or hours (H), and the number of doses after X. Where survival is the endpoint, this PubChem deposit counts one and a half times the control or more as active, and values a quarter to a half above the control carry no call in these data; other NCI protocols may use other cut-offs. Some entries were tested several times; the results are listed from low to high. Some schedules carry Z or #; the key to these is not given.

System: L1210 leukemia ip in BDF1 mice, survival T/C
Experiment: NCI In Vivo Anticancer Drug Screen. Data for tumor model L1210 Leukemia (intraperitoneal) in B6D2F1 (BDF1) mice
Settings: T/C endpoint: mean survival time, higher T/C = longer survival

SMILES: S=c1nc[nH]c2c1ncn2C1CCCCO1 (stereo not given)
- T/C (dose: 31.0 mg/kg/injection, schedule: Q01DX Z (ip), vehicle: carboxymethylcellulose (CMC)): 129 % of control
- T/C (dose: 60.0 mg/kg/injection, schedule: Q01DX009 (ip), vehicle: saline): 137 and 138 % of control
- T/C (dose: 62.0 mg/kg/injection, schedule: Q01DX Z (ip), vehicle: carboxymethylcellulose (CMC)): 128 % of control
- T/C (dose: 100.0 mg/kg/injection, schedule: Q01DX001 (ip), vehicle: saline): 138 % of control
- T/C (dose: 200.0 mg/kg/injection, schedule: Q01DX001 (ip), vehicle: carboxymethylcellulose (CMC)): 135 % of control
- T/C (dose: 200.0 mg/kg/injection, schedule: Q01DX001 (ip), vehicle: saline): 132 % of control
- survivor count (dose: 240.0 mg/kg/injection, schedule: Q01DX009 (ip), vehicle: saline): 6 of 6
- T/C (dose: 300.0 mg/kg/injection, schedule: Q01DX001 (ip), vehicle: saline): 128 % of control
- T/C (dose: 400.0 mg/kg/injection, schedule: Q01DX001 (ip), vehicle: carboxymethylcellulose (CMC)): 130 and 145 % of control
- survivor count (dose: 400.0 mg/kg/injection, schedule: Q01DX001 (ip), vehicle: saline): 1 of 6
